According to US12516015B2 (AMALIVE LIMITED, priority 2009, dated 2026):
Where two headings read alike, the source gives them in different places.

In the case of `NCCC[C@H](N)C(=O)O.O=C(O)Cc1ccccc1` [L-ornithine phenyl acetate], the “Results (crystalline form)” value (Test 5, Anti-Solvent (IPA) Addition Elevated Temperature, cyclohexanone) is reported as “No Solid”, the “Results (crystalline form)” value (Test 6, Anti-Solvent (IPA) Addition Ambient Temperature, cyclohexanone) is reported as “Form II” and the “Results (crystalline form)” value (Test 7, Anti-Solvent (IPA) Addition (4° C.), cyclohexanone) is reported as “Form II”. The “Results (crystalline form)” value (Test 8, Anti-Solvent (IPA) Addition (−21° C.), cyclohexanone) was “Form II”, the “Results (crystalline form)” value (Test 9, Anti-Solvent (Ethanol) Addition Ambient Temperature, cyclohexanone) was “Form II” and the “Results (crystalline form)” value (Test 10, Anti-Solvent (Ethanol) Addition (4° C.), cyclohexanone) was “Form I”. For the same molecule, the “Results (crystalline form)” value (Test 11, Anti-Solvent (Ethanol) Addition (−21° C.), cyclohexanone) was “Form I”, the “Results (crystalline form)” value (Test 16, Anti-Solvent (IPA) Addition Elevated Temperature, ethanol/acetone (50:50)) was “Form II” and the “Results (crystalline form)” value (Test 17, Anti-Solvent (IPA) Addition Ambient Temperature, ethanol/acetone (50:50)) was “Form II”. The “Results (crystalline form)” value (Test 18, Anti-Solvent (IPA) Addition (4° C.), ethanol/acetone (50:50)) was “Form II”, the “Results (crystalline form)” value (Test 19, Anti-Solvent (IPA) Addition (−21° C.), ethanol/acetone (50:50)) was “Form II” and the “Results (crystalline form)” value (Test 20, Anti-Solvent (Ethanol) Addition Ambient Temperature, ethanol/acetone (50:50)) was “Form II”. For the same molecule, the “Results (crystalline form)” value (Test 21, Anti-Solvent (Ethanol) Addition (4° C.), ethanol/acetone (50:50)) was “Form I”, the “Results (crystalline form)” value (Test 22, Anti-Solvent (Ethanol) Addition (−21° C.), ethanol/acetone (50:50)) was “Form I” and the “Results (crystalline form)” value (Test 27, Anti-Solvent (IPA) Addition Elevated Temperature, acetic acid) was “Form VI”. For the same molecule, the “Results (crystalline form)” value (Test 28, Anti-Solvent (IPA) Addition Ambient Temperature, acetic acid) was “Form IV”, the “Results (crystalline form)” value (Test 29, Anti-Solvent (IPA) Addition (4° C.), acetic acid) was “Form IV” and the “Results (crystalline form)” value (Test 30, Anti-Solvent (IPA) Addition (−21° C.), acetic acid) was “Form IV”. The “Results (crystalline form)” value (Test 31, Anti-Solvent (Ethanol) Addition Ambient Temperature, acetic acid) was “Form IV”, the “Results (crystalline form)” value (Test 32, Anti-Solvent (Ethanol) Addition (4° C.), acetic acid) was “Form IV” and the “Results (crystalline form)” value (Test 33, Anti-Solvent (Ethanol) Addition (−21° C.), acetic acid) was “Form IV”. The “Results (crystalline form)” value (Test 38, Anti-Solvent (IPA) Addition Elevated Temperature, 1-propanol) was “Form II”, the “Results (crystalline form)” value (Test 39, Anti-Solvent (IPA) Addition Ambient Temperature, 1-propanol) was “Form II” and the “Results (crystalline form)” value (Test 40, Anti-Solvent (IPA) Addition (4° C.), 1-propanol) was “Form II”. For the same molecule, the “Results (crystalline form)” value (Test 41, Anti-Solvent (IPA) Addition (−21° C.), 1-propanol) was “Form II”, the “Results (crystalline form)” value (Test 42, Anti-Solvent (Ethanol) Addition Ambient Temperature, 1-propanol) was “Form II” and the “Results (crystalline form)” value (Test 43, Anti-Solvent (Ethanol) Addition (4° C.), 1-propanol) was “Form I/II”. For the same molecule, the “Results (crystalline form)” value (Test 44, Anti-Solvent (Ethanol) Addition (−21° C.), 1-propanol) was “Form I”, the “Results (crystalline form)” value (Test 49, Anti-Solvent (IPA) Addition Elevated Temperature, dimethylcarbonate) was “Form II” and the “Results (crystalline form)” value (Test 50, Anti-Solvent (IPA) Addition Ambient Temperature, dimethylcarbonate) was “Form II”. The “Results (crystalline form)” value (Test 51, Anti-Solvent (IPA) Addition (4° C.), dimethylcarbonate) was “Form II”, the “Results (crystalline form)” value (Test 52, Anti-Solvent (IPA) Addition (−21° C.), dimethylcarbonate) was “Form II” and the “Results (crystalline form)” value (Test 53, Anti-Solvent (Ethanol) Addition Ambient Temperature, dimethylcarbonate) was “Form II”. The “Results (crystalline form)” value (Test 54, Anti-Solvent (Ethanol) Addition (4° C.), dimethylcarbonate) was “Form I”, the “Results (crystalline form)” value (Test 55, Anti-Solvent (Ethanol) Addition (−21° C.), dimethylcarbonate) was “Form II” and the “Results (crystalline form)” value (Test 60, Anti-Solvent (IPA) Addition Elevated Temperature, NMP) was “Form II”. For the same molecule, the “Results (crystalline form)” value (Test 61, Anti-Solvent (IPA) Addition Ambient Temperature, NMP) was “Form II”, the “Results (crystalline form)” value (Test 62, Anti-Solvent (IPA) Addition (4° C.), NMP) was “Form II” and the “Results (crystalline form)” value (Test 63, Anti-Solvent (IPA) Addition (−21° C.), NMP) was “Form II”. The “Results (crystalline form)” value (Test 64, Anti-Solvent (Ethanol) Addition Ambient Temperature, NMP) was “Form II”, the “Results (crystalline form)” value (Test 65, Anti-Solvent (Ethanol) Addition (4° C.), NMP) was “Form I/II” and the “Results (crystalline form)” value (Test 66, Anti-Solvent (Ethanol) Addition (−21° C.), NMP) was “Form II”. For the same molecule, the “Results (crystalline form)” value (Test 71, Anti-Solvent (IPA) Addition Elevated Temperature, etOAc/cyclohexane (1:2)) was “Form II”, the “Results (crystalline form)” value (Test 72, Anti-Solvent (IPA) Addition Ambient Temperature, etOAc/cyclohexane (1:2)) was “Form II” and the “Results (crystalline form)” value (Test 73, Anti-Solvent (IPA) Addition (4° C.), etOAc/cyclohexane (1:2)) was “Form II”. The “Results (crystalline form)” value (Test 74, Anti-Solvent (IPA) Addition (−21° C.), etOAc/cyclohexane (1:2)) was “Form II”, the “Results (crystalline form)” value (Test 75, Anti-Solvent (Ethanol) Addition Ambient Temperature, etOAc/cyclohexane (1:2)) was “Form II” and the “Results (crystalline form)” value (Test 76, Anti-Solvent (Ethanol) Addition (4° C.), etOAc/cyclohexane (1:2)) was “Form I”. The “Results (crystalline form)” value (Test 77, Anti-Solvent (Ethanol) Addition (−21° C.), etOAc/cyclohexane (1:2)) was “Form I/II”, the “Results (crystalline form)” value (Test 82, Anti-Solvent (IPA) Addition Elevated Temperature, etOAc/toluene (1:2)) was “Form II” and the “Results (crystalline form)” value (Test 83, Anti-Solvent (IPA) Addition Ambient Temperature, etOAc/toluene (1:2)) was “Form II”. The “Results (crystalline form)” value (Test 84, Anti-Solvent (IPA) Addition (4° C.), etOAc/toluene (1:2)) was “Form II”, the “Results (crystalline form)” value (Test 85, Anti-Solvent (IPA) Addition (−21° C.), etOAc/toluene (1:2)) was “Form II” and the “Results (crystalline form)” value (Test 86, Anti-Solvent (Ethanol) Addition Ambient Temperature, etOAc/toluene (1:2)) was “Form II”. The “Results (crystalline form)” value (Test 87, Anti-Solvent (Ethanol) Addition (4° C.), etOAc/toluene (1:2)) was “Form I”, the “Results (crystalline form)” value (Test 88, Anti-Solvent (Ethanol) Addition (−21° C.), etOAc/toluene (1:2)) was “Form II” and the “Results (crystalline form)” value (Test 93, Anti-Solvent (IPA) Addition Elevated Temperature, IPA/diisopropyl ether (1:2)) was “Form II”. For the same molecule, the “Results (crystalline form)” value (Test 94, Anti-Solvent (IPA) Addition Ambient Temperature, IPA/diisopropyl ether (1:2)) was “Form II”, the “Results (crystalline form)” value (Test 95, Anti-Solvent (IPA) Addition (4° C.), IPA/diisopropyl ether (1:2)) was “Form II” and the “Results (crystalline form)” value (Test 96, Anti-Solvent (IPA) Addition (−21° C.), IPA/diisopropyl ether (1:2)) was “Form II”. For the same molecule, the “Results (crystalline form)” value (Test 97, Anti-Solvent (Ethanol) Addition Ambient Temperature, IPA/diisopropyl ether (1:2)) was “Form II”, the “Results (crystalline form)” value (Test 98, Anti-Solvent (Ethanol) Addition (4° C.), IPA/diisopropyl ether (1:2)) was “Form I” and the “Results (crystalline form)” value (Test 99, Anti-Solvent (Ethanol) Addition (−21° C.), IPA/diisopropyl ether (1:2)) was “Form I/II”. For the same molecule, the “Results (crystalline form)” value (Test 104, Anti-Solvent (IPA) Addition Elevated Temperature, DIPE) was “Form II”, the “Results (crystalline form)” value (Test 105, Anti-Solvent (IPA) Addition Ambient Temperature, DIPE) was “Form II” and the “Results (crystalline form)” value (Test 106, Anti-Solvent (IPA) Addition (4° C.), DIPE) was “Form II”. The “Results (crystalline form)” value (Test 107, Anti-Solvent (IPA) Addition (−21° C.), DIPE) was “Form II”, the “Results (crystalline form)” value (Test 108, Anti-Solvent (Ethanol) Addition Ambient Temperature, DIPE) was “Form II” and the “Results (crystalline form)” value (Test 109, Anti-Solvent (Ethanol) Addition (4° C.), DIPE) was “Form I”. The “Results (crystalline form)” value (Test 110, Anti-Solvent (Ethanol) Addition (−21° C.), DIPE) was “Form II”, the “Results (crystalline form)” value (Test 115, Anti-Solvent (IPA) Addition Elevated Temperature, nitromethane/water (20%)) was “No Solid” and the “Results (crystalline form)” value (Test 116, Anti-Solvent (IPA) Addition Ambient Temperature, nitromethane/water (20%)) was “Form II”. For the same molecule, the “Results (crystalline form)” value (Test 117, Anti-Solvent (IPA) Addition (4° C.), nitromethane/water (20%)) was “Form II”, the “Results (crystalline form)” value (Test 118, Anti-Solvent (IPA) Addition (−21° C.), nitromethane/water (20%)) was “Form II” and the “Results (crystalline form)” value (Test 119, Anti-Solvent (Ethanol) Addition Ambient Temperature, nitromethane/water (20%)) was “Form II”. The “Results (crystalline form)” value (Test 120, Anti-Solvent (Ethanol) Addition (4° C.), nitromethane/water (20%)) was “Form I”, the “Results (crystalline form)” value (Test 121, Anti-Solvent (Ethanol) Addition (−21° C.), nitromethane/water (20%)) was “Form I/II” and the “Results (crystalline form)” value (Test 126, Anti-Solvent (IPA) Addition Elevated Temperature, acetone/water (20%)) was “Form II”. The “Results (crystalline form)” value (Test 127, Anti-Solvent (IPA) Addition Ambient Temperature, acetone/water (20%)) was “Form II”, the “Results (crystalline form)” value (Test 128, Anti-Solvent (IPA) Addition (4° C.), acetone/water (20%)) was “Form II” and the “Results (crystalline form)” value (Test 129, Anti-Solvent (IPA) Addition (−21° C.), acetone/water (20%)) was “Form II”. For the same molecule, the “Results (crystalline form)” value (Test 130, Anti-Solvent (Ethanol) Addition Ambient Temperature, acetone/water (20%)) was “Form II”, the “Results (crystalline form)” value (Test 131, Anti-Solvent (Ethanol) Addition (4° C.), acetone/water (20%)) was “Form I” and the “Results (crystalline form)” value (Test 132, Anti-Solvent (Ethanol) Addition (−21° C.), acetone/water (20%)) was “Form II”. The “Results (crystalline form)” value (Test 137, Anti-Solvent (IPA) Addition Elevated Temperature, 1,4 dioxane/water (20%)) was “Form II”, the “Results (crystalline form)” value (Test 138, Anti-Solvent (IPA) Addition Ambient Temperature, 1,4 dioxane/water (20%)) was “Form II” and the “Results (crystalline form)” value (Test 139, Anti-Solvent (IPA) Addition (4° C.), 1,4 dioxane/water (20%)) was “Form II”. The “Results (crystalline form)” value (Test 140, Anti-Solvent (IPA) Addition (−21° C.), 1,4 dioxane/water (20%)) was “Form II”, the “Results (crystalline form)” value (Test 141, Anti-Solvent (Ethanol) Addition Ambient Temperature, 1,4 dioxane/water (20%)) was “Form II” and the “Results (crystalline form)” value (Test 142, Anti-Solvent (Ethanol) Addition (4° C.), 1,4 dioxane/water (20%)) was “Form I”. The “Results (crystalline form)” value (Test 143, Anti-Solvent (Ethanol) Addition (−21° C.), 1,4 dioxane/water (20%)) was “Form II”.
